From patent US20190055283A1 (OHIO STATE INNOVATION FOUNDATION, priority 2016, published 2019) come the findings set out here.

The data set in a line: general procedure: solution-phase peptide synthesis. Conditions: late stage modification step.

The substance “Cbz-Asp(OtBu)-Glu(OtBu)-Val-AAsp(OtBu)-COBn” had a step yield of 18% yield.

“Cbz-Asp(OtBu)-Glu(OtBu)-Val-AAsp(OtBu)-COMe” returned a step yield of 29% yield.

Take Cbz-Asp-Glu-Val-AAsp-COBn: the step yield is reported as 95%.

The substance Cbz-Asp-Glu-Val-AAsp-COH gave a step yield of 10%.

For Cbz-Asp-Glu-Val-AAsp-COMe, the step yield came out at 95% yield.
